Results deposited as PubChem BioAssay AID686938 (Drosophila RNAi Screening Center, 2013)
The deposit covers about 23,000 reagents; below is an unselected part of those with a known target gene and a result. Of all reagents, 75 (0.33%) were called active. 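Raw plate signals without normalisation; calls rest on plate z-scores that were not deposited; ratio present for only 364 wells.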 A number with no mark means an inactive call. A plus sign joins genes that one reagent is predicted to hit. Not given: the dose of the treatment.

Assay: 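Fly genes required for calcium entry once internal stores are emptied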 (primary screen)
Cells: Drosophila S2R+ cells
Reagents: long dsRNA against Drosophila genes, about 0.25 µg dsRNA per well, roughly 10,000 cells
Timing: 5 days of knock-down before the calcium assay
Challenge: thapsigargin (SERCA pump blocker) to empty calcium stores; entry signal taken 4 min after adding it
Measurement: 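Duplicate raw fluo-4 intensities per well from a plate reader, at rest and four minutes after thapsigargin emptied calcium stores; entry-to-rest ratio filled for only some wells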
Scale: calcium entry signal: higher = stronger calcium signal after store depletion; entry to resting ratio: higher = more calcium entry relative to resting level; resting calcium signal: higher = higher resting calcium signal
Call rule: 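Called when the plate z-score of the entry-to-rest ratio, mean of duplicates, falls below −3; wells with low overall dye signal (Fmax z below −2) or more than five off-targets excluded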
Calls: active = strongly reduced calcium entry; inactive = no strong reduction

no.	target	DRSC id	calcium entry signal, replicate 1 (fluorescence units)	calcium entry signal, replicate 2 (fluorescence units)	entry to resting ratio	resting calcium signal, replicate 1 (fluorescence units)	resting calcium signal, replicate 2 (fluorescence units)
1	kipf	DRSC15446	4.74e7	5.99e7		2.19e7	2.68e7
2	kipf	DRSC22871	2.75e7	3.29e7		1.78e7	1.65e7
3	br	DRSC17691	2.58e7	4.16e7		1.39e7	1.70e7
4	br	DRSC17789	3.88e7	5.32e7	2	1.97e7	2.07e7
5	br	DRSC18743	5.39e7	3.74e7	1.9	2.77e7	1.90e7
6	br	DRSC18744	3.66e7	4.37e7	2.1	1.78e7	1.71e7
7	spas	DRSC15929	2.18e7	2.43e7		1.08e7	1.08e7
8	CG32024	DRSC21883	2.48e7	4.57e7		1.22e7	2.16e7
9	CG12241	DRSC14481	3.74e7	4.08e7		1.58e7	1.82e7
10	psq	DRSC07668	3.52e7	3.91e7		2.06e7	2.04e7
11	psq	DRSC23094	4.42e7	4.45e7		2.15e7	1.95e7
12	CG32320	DRSC21514	3.84e7	3.45e7		2.18e7	1.61e7
13	Pk34A	DRSC03398	4.57e7	3.25e7		2.11e7	1.57e7
14	CG10958	DRSC17768	2.86e7	2.03e7		1.25e7	9.42e6
15	pea	DRSC07120	2.25e7	2.90e7		1.43e7	1.70e7
16	CG34330	DRSC20043	4.98e7	4.82e7		2.25e7	1.95e7
17	CG12078	DRSC08242	2.68e7	3.34e7		1.29e7	1.46e7
18	Tsp42Eb + CG30160	DRSC04961	1.94e7	2.46e7		1.01e7	1.08e7
19	Tsp42Eb + CG30160	DRSC06791	2.71e7	3.39e7		1.31e7	1.44e7
20	Naus	DRSC06011	3.24e7	3.27e7		1.47e7	1.62e7
21	Naus	DRSC06469	5.09e7	5.42e7		2.47e7	2.66e7
22	CG17163	DRSC20901	4.19e7	4.28e7		2.17e7	1.97e7
23	e(r)	DRSC18768	3.27e7	3.28e7		1.68e7	1.59e7
24	CCT2	DRSC18415	2.23e7	2.16e7		1.20e7	1.24e7

Already shown: entries from further up.
no.	target	DRSC id	calcium entry signal, replicate 1 (fluorescence units)	calcium entry signal, replicate 2 (fluorescence units)	entry to resting ratio	resting calcium signal, replicate 1 (fluorescence units)	resting calcium signal, replicate 2 (fluorescence units)
15	pea	DRSC07120	2.25e7	2.90e7		1.43e7	1.70e7
16	CG34330	DRSC20043	4.98e7	4.82e7		2.25e7	1.95e7
17	CG12078	DRSC08242	2.68e7	3.34e7		1.29e7	1.46e7
